{
  "sequences": {"note": "The chains behind the UniProt entries cited, without tags or fusion partners. Where a name states a change or a piece, a line headed by the entry shows the natural chain unless it says otherwise.", "UniProt P84022": "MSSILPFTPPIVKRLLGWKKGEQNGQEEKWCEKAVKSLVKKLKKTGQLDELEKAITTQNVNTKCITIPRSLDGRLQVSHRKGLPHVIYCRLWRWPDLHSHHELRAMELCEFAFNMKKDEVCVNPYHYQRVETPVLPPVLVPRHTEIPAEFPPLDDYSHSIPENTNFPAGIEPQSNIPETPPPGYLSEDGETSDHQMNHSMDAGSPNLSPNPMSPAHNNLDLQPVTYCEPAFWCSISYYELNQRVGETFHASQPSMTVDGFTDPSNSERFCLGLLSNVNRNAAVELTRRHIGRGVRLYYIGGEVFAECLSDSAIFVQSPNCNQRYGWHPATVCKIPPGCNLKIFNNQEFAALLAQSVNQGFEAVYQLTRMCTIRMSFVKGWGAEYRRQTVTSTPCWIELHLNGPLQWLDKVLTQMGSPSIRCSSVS", "UniProt O95405": "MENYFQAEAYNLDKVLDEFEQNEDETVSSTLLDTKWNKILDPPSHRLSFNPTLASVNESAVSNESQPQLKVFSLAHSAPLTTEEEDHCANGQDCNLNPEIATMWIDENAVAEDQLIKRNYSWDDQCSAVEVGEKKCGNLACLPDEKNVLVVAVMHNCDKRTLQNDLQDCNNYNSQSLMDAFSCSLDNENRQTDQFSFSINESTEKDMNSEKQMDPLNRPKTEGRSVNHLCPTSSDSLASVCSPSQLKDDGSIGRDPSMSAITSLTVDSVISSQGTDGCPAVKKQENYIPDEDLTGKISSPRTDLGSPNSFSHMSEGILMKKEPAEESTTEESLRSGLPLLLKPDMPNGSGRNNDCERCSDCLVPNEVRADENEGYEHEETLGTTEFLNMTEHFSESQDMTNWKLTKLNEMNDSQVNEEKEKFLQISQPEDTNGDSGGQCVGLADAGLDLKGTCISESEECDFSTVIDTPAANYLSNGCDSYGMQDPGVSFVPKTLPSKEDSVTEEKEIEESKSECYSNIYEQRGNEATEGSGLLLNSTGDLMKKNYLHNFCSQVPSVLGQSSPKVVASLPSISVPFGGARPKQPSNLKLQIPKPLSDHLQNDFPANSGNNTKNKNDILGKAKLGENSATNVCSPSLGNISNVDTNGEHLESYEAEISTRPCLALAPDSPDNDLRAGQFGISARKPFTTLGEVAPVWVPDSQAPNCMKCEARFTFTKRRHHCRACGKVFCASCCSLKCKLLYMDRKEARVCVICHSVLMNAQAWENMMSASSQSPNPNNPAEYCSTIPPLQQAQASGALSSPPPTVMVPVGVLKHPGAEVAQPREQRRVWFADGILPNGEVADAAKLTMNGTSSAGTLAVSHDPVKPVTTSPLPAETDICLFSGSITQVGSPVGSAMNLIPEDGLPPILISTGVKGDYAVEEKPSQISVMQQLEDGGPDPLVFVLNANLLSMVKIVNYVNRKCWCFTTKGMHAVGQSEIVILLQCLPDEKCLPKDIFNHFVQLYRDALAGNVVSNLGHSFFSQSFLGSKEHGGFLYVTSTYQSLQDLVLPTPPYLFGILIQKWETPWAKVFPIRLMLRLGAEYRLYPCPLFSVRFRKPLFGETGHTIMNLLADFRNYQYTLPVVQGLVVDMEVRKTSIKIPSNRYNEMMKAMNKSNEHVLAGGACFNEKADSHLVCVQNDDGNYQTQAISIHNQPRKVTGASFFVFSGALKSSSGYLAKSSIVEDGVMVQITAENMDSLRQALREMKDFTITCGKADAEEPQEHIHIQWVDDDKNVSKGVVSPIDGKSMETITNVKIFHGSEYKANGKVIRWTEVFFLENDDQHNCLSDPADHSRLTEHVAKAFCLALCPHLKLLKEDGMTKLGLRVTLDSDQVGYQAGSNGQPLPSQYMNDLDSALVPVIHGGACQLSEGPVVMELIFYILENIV"},
  "source": "paper doi:10.1101/2020.08.12.247874",
  "biological_target": "SMAD3 (UniProt P84022)",
  "assay": "qYY2H",
  "note": "Results are given in words; binding and its absence hold for the method and conditions named. A result given as binding can be weak or reduced; the word gives no strength.",
  "data": [
    {"substance": "SMAD binding domain of SARA (from UniProt O95405) (domain or fragment)", "values": [
      {"measurement": "binding", "value": "binds"}
    ]}
  ]
}
